The record followed here is paper doi:10.1101/2025.01.30.635686 (bioRxiv, 2025).

Results are given in words; binding and its absence hold for the method and conditions named. Tags and fused reporters may be left off the sequences shown.

This assay has as its target ^ΔNYME1L (catalytic domain of YME1L without the hex-tag) (homo sapiens) (UniProt Q96TA2). The experiment in a line: SEC.

B1: ^ΔNYME1L (catalytic domain of YME1L without the hex-tag) (domain or fragment, UniProt Q96TA2 317-773)
chain: RFRTTTGLDSAVDPVQMKNVTFEHVKGVEEAKQELQEVVEFLKNPQKFTILGGKLPKGILLVGPPGTGKTLLARAVAGEADVPFYYASGSEFDEMFVGVGASRIRNLFREAKANAPCVIFIDELDSVGGKRIESPMHPYSRQTINQLLAEMDGFKPNEGVIIIGATNFPEALDNALIRPGRFDMQVTVPRPDVKGRTEILKWYLNKIKFDQSVDPEIIARGTVGFSGAELENLVNQAALKAAVDGKEMVTMKELEFSKDKILMGPERRSVEIDNKNKTITAYHESGHAIIAYYTKDAMPINKATIMPRGPTLGHVSLLPENDRWNETRAQLLAQMDVSMGGRVAEELIFGTDHITTGASSDFDNATKIAKRMVTKFGMSEKLGVMTYSDTGKLSPETQSAIEQEIRILLRDSYERAKHILKTHAKEHKNLAEALLTYETLDAKEIQIVLEGKKLEVR
Turning to B1, the binding entry was “no binding”.
